Data from US20060194814A1, “Benzamide compounds” (priority 2003, published 2006).
Some entries share one result that the patent states for a list of compounds. Some compounds share one range, which may span the group rather than tell each member.

What was measured:
[1] = test system: HIV-1 IIIB strain; experiment: HIV-1 IIIB replication in HeLa indicator cells (AV-Finder-HIV assay), no pre-medication; type: cell-based; conditions: concentrations in the nanomolar range
[2] = test system: Y1 mouse adrenal tumor cells; experiment: dbcAMP-induced 20á-hydroxyprogesterone synthesis in Y1 cells; type: cell-based; conditions: 2 M concentration
Experimental: Culture media were then changed and cells were stimulated with 1 mM dbcAMP and the treatment for 24 to 48 hours. […] The synthesis of 20 —OH progesterone and progesterone in Y1 and MA-10 cell media respectively were measured by RIA (Brown et al., 1992). H295R human adrenal tumor cells were seeded in 48-well plates at 10^5 cells/well and incubated for 24 hours. […] At the end of the incubation time period, cells were treated with 1 mM dbcAMP for 48 hours. Cortisol levels in the media were determined by radioimmunoassay as previously described (Amri et al., 1996).

## CC1CN(C(=O)C(Cc2c[nH]c3ccccc23)NC(=O)c2ccc([N+](=O)[O-])cc2)CCN1C(=O)C1CC1 (centres unmarked) [SP010, N-[2-(4-cyclopropanecarbonyl-3-methyl-piperazin-1-yl)-1-(1H-indol-3-yl-methyl)-2-oxo-ethyl]-4-nitro-benzamide]
[1]
  inhibition of HIV-1 IIIB replication: up to 50%

## CCN(CC)CCNC(=O)c1ccc(OC2OC(COC(C)=O)C(OC(C)=O)C(OC(C)=O)C2OC(C)=O)c(OC)c1 (centres unmarked) [SP014, Acetic acid 4,5-diacetoxy-2-acetoxymethyl-6-[4-(2-diethylamino-ethylcarbamoyl)-2-methoxy-phenoxy]-tetrahydro-pyran-3-yl ester]
[2]
  reduction of dbcAMP-induced 20á-hydroxyprogesterone synthesis: 30-38%

## CC(=O)OC1CCC2C(C)CC3OC(=O)C(CN4CCN(C(=O)c5ccccc5)CC4)C3C(O)(OC(C)=O)C12C (centres unmarked) [SP016, Acetic acid 5-acetoxy-3-(4-benzoyl-piperazin-1-yl-methyl)-4-hydroxy-4a,8-dimethyl-2-oxo-dodecahydro-azuleno[6,5-b]furan-4-yl ester]
[2]
  reduction of dbcAMP-induced 20á-hydroxyprogesterone synthesis: 30-38%

## CC1=CCC23OC2(C)CCC2C(CN4CCN(C(=O)c5ccccc5)CC4)C(=O)OC2C13 (centres unmarked) [SP017, 3-(4-benzoyl-piperazin-1-yl-methyl)-6,6a-epoxy-6,9-dimethyl-3a,4,5,6,6a,7,9a,9b-octahydro-3H-azuleno[4,5-b]furan-2-one]
[2]
  reduction of dbcAMP-induced 20á-hydroxyprogesterone synthesis: 30-38%

## CCN(CC)CCNC(=O)c1ccc(N)cc1 [SP100, procainamide]
[1]
  inhibition of HIV-1 IIIB replication: up to 50%
